Experimental data published in PMC13161223, “Molecular anatomy of PLK1 master docking motifs” (Nature Communications, 2026).
These are yes or no findings as the source states them, for the method shown. Some results given as binding are weak or reduced against the parent protein; the word gives no strength. Where a sequence is shown, tags or fusion partners need not be part of it.

By UniProt entry, the sequences of proteins in these tests, tags left out. Residues count along the entry.
UniProt P53350, residues 345-603: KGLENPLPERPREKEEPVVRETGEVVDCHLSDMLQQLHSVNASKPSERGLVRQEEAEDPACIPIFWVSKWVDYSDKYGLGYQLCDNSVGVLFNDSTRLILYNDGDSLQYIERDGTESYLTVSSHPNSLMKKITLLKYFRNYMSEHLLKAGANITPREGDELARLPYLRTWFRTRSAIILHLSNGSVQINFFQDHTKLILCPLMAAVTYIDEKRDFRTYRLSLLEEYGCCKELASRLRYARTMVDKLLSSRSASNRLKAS

Target: Polo-box domain (PBD) of human PLK1 as used in the SEC experiments of Fig. 5F-H (human) (UniProt P53350)
Assay: SEC; analytical SEC of Fig. 5F, 50 mM HEPES pH 7.5, 150 mM NaCl, 5% glycerol, 1 mM TCEP, 4 °C; kinase domain, PBD and MAP205 mixed; both purified

- binding: binds
B1: MBP-Map205^264-322-His (domain or fragment, UniProt P23226 264-322)
chain: GVQPRPFLPGGTLDDLVAESPRKEFARINMDGIAVPDEREFDIEADMRPHELEQESDTF
